{"source": "patent US20240175819A1", "about": "“DIAGNOSTIC TEST” (THE UNIVERSITY OF WARWICK, priority 2022, published 2024)", "test_system": "E. coli", "test": "Hydrogel biosensors with encapsulated antibiotic spiked with E. coli; inhibition of bacterial growth by antibiotic release (FIG. 6)", "type": "cell-based", "settings": "antibiotic encapsulated within crosslinked hydrogel network, photographs", "text": "FIG. 6 is a series of photographs of biosensors each comprising a different antibiotic wherein bacterial growth is inhibited as a result of antibiotic release from the hydrogel network;\nReferring now to FIG. 6, there is shown photographs of three biosensors 6A, 6B, 6C each comprising a different antibiotic encapsulated within the crosslinked hydrogel network. Biosensor 6A comprises the antibiotic chloramphenicol, biosensor 6B comprises the antibiotic kanamycin, and biosensor 6C comprises the antibiotic ampicillin. The biosensors 6A, 6B, 6C were spiked with E. coli. In each case, it is shown that there is antibacterial activity in the area surrounding the spiked portion of hydrogel. Therefore, in these cases, E. coli. is shown to be susceptible to the antibiotics encapsulated within the biosensors 6A, 6B, 6C.", "note": "At least one structure is not confirmed: it was looked up by name or label, or the drawing left a doubt."}
{"smiles": "NC[C@H]1O[C@H](O[C@H]2[C@H](O)[C@@H](O[C@H]3O[C@H](CO)[C@@H](O)[C@H](N)[C@H]3O)[C@H](N)C[C@@H]2N)[C@H](O)[C@@H](O)[C@@H]1O", "note": "[kanamycin]", "values": [{"measurement": "susceptibility of E. coli to the antibiotic encapsulated within the biosensor (antibacterial activity in the area surrounding the spiked portion of hydrogel)", "value": "susceptible"}]}
